{"source": "PubChem BioAssay AID540256", "about": "(National Center for Advancing Translational Sciences (NCATS), 2011)", "note": "Where “and” joins values, the source holds several entries; their conditions need not be identical. Equal entries are not always repeated. Among all 300,000 compounds or so, about 3,700 (1.2%) were called active. Inconclusive means that the source gave no clear call. Such entries were picked first, then a sample of the others. The call rests on the fitted dose curve; tested in HEK293 cells. Where the call is inconclusive, the potency comes from a doubtful curve fit. Potency means the concentration at half of the fitted maximal effect."}
{"assay": "qHTS for Inhibitors of binding or entry into cells for Lassa Virus; further: nearly all actives have a fitted effect of over 50% in size", "details": "Lassa virus pseudotype entry inhibition, cell reporter; series mostly up to 37.9 µM"}
{"smiles": "Cc1ccc(SCC(=O)Nc2cc([N+](=O)[O-])ccc2O)cc1", "Potency": "inconclusive: 35.5 µM [inhibitor, single point]"}
{"smiles": "Fc1ccc(CSc2ccc(-c3cccs3)nn2)cc1", "Potency": "inconclusive: 2.51 µM [activator, full curve, poor fit]"}
{"smiles": "COc1ccc(-c2noc(N3CCC(C(=O)N4CCN(c5ccccn5)CC4)CC3)n2)cc1", "Potency": "inconclusive: 29.1 µM [inhibitor, single point]"}
{"smiles": "CC1=Nc2ccccc2/C1=C\\c1sc(Nc2ccc(C)cc2)nc1O", "Potency": "inconclusive: 2.91 µM [inhibitor, partial curve]"}
{"smiles": "CCOC(=O)c1ccc(Nc2c(OCC)c(=O)c2=O)cc1", "Potency": "inconclusive: 14.1 µM [inhibitor, partial curve, poor fit]"}
{"smiles": "CCCNC(=O)CSc1nc(-c2cccs2)cc(C(F)(F)F)n1", "Potency": "inactive"}
{"smiles": "O=C(COc1ccc(Cl)cc1Cl)Nc1ccc2nc3n(c(=O)c2c1)CCCC3", "Potency": "inconclusive: 35.5 µM [inhibitor, single point]"}
{"smiles": "CCNS(=O)(=O)c1ccc(CCC(=O)N2CCN(c3cc(Cl)ccc3C)CC2)cc1", "Potency": "inconclusive: 22.4 µM [inhibitor, single point]"}
{"smiles": "COc1ccc(/C=N/Nc2ccccn2)c(OC)c1OC", "Potency": "inconclusive: 35.5 µM [inhibitor, single point]"}
{"smiles": "Cc1ccc(OCC(=O)Nc2ccc(C)c(S(=O)(=O)N3CCCCC3)c2)c([N+](=O)[O-])n1", "Potency": "inconclusive: 28.2 µM [inhibitor, single point]"}
{"smiles": "O=S(=O)(NCCc1c[nH]c2ccccc12)c1ccccc1", "Potency": "inactive"}
{"smiles": "Cc1onc(-c2ccccc2Cl)c1C(=O)N1CCCC1", "Potency": "inconclusive: 11.2 µM [activator, single point]"}
{"smiles": "COc1cc2cc(CN(CCc3cccc(C)c3)C(=S)NCCCN(C)C)c(=O)[nH]c2cc1OC", "Potency": "inconclusive: 35.5 µM [inhibitor, single point]"}
{"smiles": "C/C(=N\\NC(=O)c1nc2ccccn2c1C)c1cccc([N+](=O)[O-])c1", "Potency": "inconclusive: 11.2 µM [inhibitor, single point]"}
{"smiles": "COc1ccc(S(=O)(=O)N2CCCC2CNC(=O)C(=O)Nc2ccc(C)cc2)cc1", "note": "(configuration not stated)", "Potency": "inconclusive: 22.4 µM [inhibitor, single point]"}
{"smiles": "Nc1ccc(-c2cc3ccccc3oc2=O)cc1", "Potency": "active: 0.708 µM"}
{"smiles": "Clc1cccc(-c2nnc(SC/C=C/c3ccccc3)n2Cc2ccco2)c1", "Potency": "inconclusive: 32.6 µM [inhibitor, single point]"}
{"smiles": "C/C(=N\\NC(=O)c1cccc(N/N=C(\\C)c2cc(O)ccc2O)c1)c1cc(O)ccc1O", "Potency": "inconclusive: 17.8 µM [inhibitor, partial curve, poor fit]"}
{"smiles": "OCCCc1nc2ccccc2n1CCc1ccccc1", "Potency": "inactive"}
{"smiles": "COc1ccccc1N(C(=O)c1snc(C(N)=O)c1N)C(C(=O)NCc1ccccc1)c1ccc(C)o1", "note": "(configuration not stated)", "Potency": "inconclusive: 35.5 µM [inhibitor, single point]"}
{"smiles": "O=C(c1cc2ccccc2o1)N1CCOCC1", "Potency": "inconclusive: 28.2 µM [activator, single point]"}
{"smiles": "COc1cccc(C(=O)NCC(=O)OCc2cc(=O)n3nc(C)sc3n2)c1", "Potency": "inconclusive: 17.8 µM [activator, partial curve, poor fit]"}
{"smiles": "CCn1c(SCC(=O)Nc2ccc3c(c2)OCCO3)nnc1C(C)C", "Potency": "inconclusive: 0.282 µM [inhibitor, partial curve, poor fit]"}
{"smiles": "Cc1ccc(NS(=O)(=O)c2cc(-c3n[nH]c(=O)c4ccccc34)ccc2C)cc1", "Potency": "inconclusive: 10 µM [inhibitor, partial curve]"}
{"smiles": "CC1(C)CC(N2CCCC2)=CC(=[N+]2CCCCC2)C1", "Potency": "inconclusive: 18.3 µM [inhibitor, partial curve, poor fit]"}
{"smiles": "CC(OC(=O)CCC(=O)c1ccc(F)cc1)C(=O)NC1CCCCC1C", "note": "(configuration not stated)", "Potency": "inactive"}
{"smiles": "O=C1CS(=O)(=O)C2(C(=O)N(Cc3ccc(F)cc3)c3ccccc32)N1c1cccc(C(F)(F)F)c1", "note": "(configuration not stated)", "Potency": "inactive"}
{"smiles": "CCc1ccc(CNc2ccc(O)cc2)cc1", "Potency": "inconclusive: 20 µM [inhibitor, partial curve, poor fit]"}
{"smiles": "CCOC(=O)c1c(C)[nH]c(C)c1S(=O)(=O)N1CCC(C(=O)N2CCN(c3cc(C)ccc3C)CC2)CC1", "Potency": "inactive"}
{"smiles": "CC1CCN(S(=O)(=O)c2ccc3c(c2)N(CC(=O)NCCc2ccc(Cl)cc2)C(=O)CO3)CC1", "Potency": "inactive"}
{"smiles": "Cc1ccc(NC(=O)CCCn2c3ccccc3c(=O)c3cc(C)ccc32)c(Br)c1", "Potency": "active: 2.82 µM"}
{"smiles": "CCN(C(=O)c1cccc(NC(=O)c2ccccc2)c1)C1CCCCC1", "Potency": "inconclusive: 12.6 µM [inhibitor, single point]"}
{"smiles": "Cc1ccc(Cl)cc1NC(=O)CSc1nncn1-c1ccccn1", "Potency": "inactive"}
{"smiles": "Cc1cc(NC(=O)C(C)SCC(=O)Nc2cc(C(F)(F)F)ccc2N2CCCCC2)no1", "note": "(configuration not stated)", "Potency": "inactive"}
{"smiles": "Cc1c(Cl)cccc1Nc1nc(N)nc(CSc2nc3ccccc3s2)n1", "Potency": "inactive and inconclusive: 6.31 µM [activator, single point]"}
{"smiles": "O=C1c2[nH]nc(-c3ccccc3)c2C(c2ccccc2)N1c1cccc(C(F)(F)F)c1", "note": "(configuration not stated)", "Potency": "inconclusive: 7.08 µM [inhibitor, full curve, poor fit]"}
{"smiles": "COc1ccccc1C(=O)Nc1cccc2c1CCCC2", "Potency": "inconclusive: 35.5 µM [inhibitor, single point]"}
{"smiles": "COc1ccccc1NC(=O)C(NC(=O)OC(C)(C)C)C(C)OCc1ccccc1", "note": "(configuration not stated)", "Potency": "inconclusive: 0.164 µM [activator, full curve, poor fit]"}
{"smiles": "CCOC(=O)C1=C(COC(=O)CCOc2ccccc2C)NC(=O)NC1C", "note": "(configuration not stated)", "Potency": "inconclusive: 1.41 µM [inhibitor, partial curve]"}
{"smiles": "COc1ccc(C(=O)C=CNNC(=O)c2ccc(Cl)cc2)cc1", "Potency": "active: 5.62 µM"}
{"smiles": "OC(COC(c1ccc(Cl)cc1)c1ccc(Cl)cc1)CN1CCCC1", "note": "(configuration not stated)", "Potency": "inconclusive: 29.1 µM [inhibitor, single point]"}
{"smiles": "COc1ccc(CCNC(=O)CCc2cn(Cc3ccc(C)cc3)c3ccccc23)cc1OC", "Potency": "inactive"}
{"smiles": "CCOC(=O)N1CCN(C(=O)c2ccc3c(c2)N(Cc2cc(C)ccc2C)C(=O)c2ccccc2S3=O)CC1", "note": "(configuration not stated)", "Potency": "inconclusive: 35.5 µM [inhibitor, single point]"}
{"smiles": "Cc1ccc2oc(C(F)(F)C(F)F)cc(=O)c2c1", "Potency": "inactive"}
{"smiles": "COc1ccc2nc(NC(=O)c3ccoc3C)sc2c1", "Potency": "inactive"}
{"smiles": "COc1ccc(C2c3[nH]c4ccccc4c3CCN2CCCn2cccn2)cc1C", "note": "(configuration not stated)", "Potency": "inconclusive: 35.5 µM [inhibitor, single point]"}
{"smiles": "CNC(=S)N1CCN(S(=O)(=O)c2ccc3ccccc3c2)CC1", "Potency": "inconclusive: 3.55 µM [activator, single point]"}
{"smiles": "O=[N+]([O-])c1ccc2nc(-c3ccccc3[N+](=O)[O-])[nH]c2c1", "Potency": "inactive"}
{"smiles": "COc1ccc(C(=O)NC(=S)SCC(=O)O)cc1", "Potency": "inactive"}
{"smiles": "O=C(CCCN1C(=O)/C(=C/c2ccccc2Cl)SC1=S)NCCCN1CCOCC1", "Potency": "inconclusive: 11.2 µM [inhibitor, partial curve, poor fit]"}
{"smiles": "Cc1ccc(C(=O)CNc2ccccc2C)cc1", "Potency": "inactive"}
{"smiles": "O=C(CSc1nnc(-c2ccc(Cl)cc2)o1)N1CCc2ccccc21", "Potency": "inactive"}
{"smiles": "CN(C(=O)CSc1nc(N)c2c3c(sc2n1)CSC(C)(C)C3)c1ccccc1", "Potency": "inconclusive: 14.1 µM [inhibitor, single point]"}
{"smiles": "Cc1ccc(C)c(N2CCN(CCCNC(=O)Cn3cccc3C(=O)c3ccccc3C)CC2)c1", "Potency": "inconclusive: 22.4 µM [inhibitor, single point]"}
{"smiles": "O=C(CCc1ccccc1)N1CCCN(C(=O)CCc2ccccc2)CC1", "Potency": "inconclusive: 6.51 µM [inhibitor, partial curve]"}
{"smiles": "O=C(OCC(=O)N1CCN(C(=O)c2ccco2)CC1)c1cn(-c2ccccc2)nc1-c1ccccc1", "Potency": "inconclusive: 5.62 µM [activator, single point]"}
{"smiles": "COc1ccccc1NS(=O)(=O)c1cc(NC(=O)CNC(=O)c2ccc(C)s2)ccc1Cl", "Potency": "inconclusive: 35.5 µM [inhibitor, partial curve, poor fit]"}
{"smiles": "O=C(c1cccc(-c2ccc(O)cc2)c1)N1CCN(c2ccc(F)cc2)CC1", "Potency": "inconclusive: 7.08 µM [inhibitor, partial curve, poor fit]"}
{"smiles": "CCC(Sc1nc2ccncc2[nH]1)C(=O)Nc1ccc(F)cc1", "note": "(configuration not stated)", "Potency": "inactive"}
{"smiles": "NS(=O)(=O)c1ccc(CNS(=O)(=O)c2cc(Cl)ccc2Cl)cc1", "Potency": "inconclusive: 11.2 µM [inhibitor, partial curve, poor fit]"}
{"smiles": "CCOc1ccc(S(=O)(=O)N2CCCC(C(=O)NCc3cccnc3)C2)cc1Cl", "note": "(configuration not stated)", "Potency": "inconclusive: 11.2 µM [inhibitor, partial curve, poor fit]"}
{"smiles": "CCc1c(C)sc(NC(=O)c2cc(-c3ccc(OC)cc3)on2)c1C#N", "Potency": "inactive"}
{"smiles": "COc1cc(C=O)ccc1OCCCOc1ccc([N+](=O)[O-])cc1", "Potency": "inconclusive: 29.1 µM [activator, single point]"}
{"smiles": "Cc1cccc(NC(=O)c2ccc3ccccc3n2)n1", "Potency": "inconclusive: 14.1 µM [inhibitor, single point]"}
{"smiles": "COC(=O)Nc1ccc(S(=O)(=O)n2cnc3ccccc32)cc1", "Potency": "inconclusive: 0.0052 µM [activator, full curve, poor fit]"}
{"smiles": "CCOc1ccc(CNC(=O)c2cc3c(=O)n(Cc4cccs4)ccc3nc2C)cc1", "Potency": "inconclusive: 3.55 µM [activator, single point]"}
{"smiles": "Cc1ccc(C(C2=C(O)CC(C)(C)CC2=O)C2C(=O)CC(C)(C)CC2=O)s1", "note": "(configuration not stated)", "Potency": "inconclusive: 4.11 µM [activator, partial curve, poor fit]"}
